Source: publication doi:10.1101/2024.12.21.629933
Results are given in words; binding and its absence hold for the method and conditions named. Binding seen in cells or lysates may run through a third protein. Some binding calls cover weakened binding; strength is not graded here.

Target: Epidermal growth factor receptor (EGFR), endogenous in A549 cells (human (endogenous in A549)) (UniProt P00533)
Test: proximity ligation

binding: binds
Substance: tyrosine-protein phosphatase transmembrane receptor PTPRF (from UniProt P10586 30-1907)
